Source: paper PMC9095502
No constants are given. Whether binding was seen depends on the method and setting. In cells and extracts the contact can be indirect. Binding calls can cover weak binding; strength is not graded here. Where a sequence is shown, tags or fusion partners need not be part of it.

Chains of the proteins cited; added tags and fusions are not shown. Lines headed by an entry give the natural chain unless they say otherwise; changes in a name come on top.
UniProt P61765: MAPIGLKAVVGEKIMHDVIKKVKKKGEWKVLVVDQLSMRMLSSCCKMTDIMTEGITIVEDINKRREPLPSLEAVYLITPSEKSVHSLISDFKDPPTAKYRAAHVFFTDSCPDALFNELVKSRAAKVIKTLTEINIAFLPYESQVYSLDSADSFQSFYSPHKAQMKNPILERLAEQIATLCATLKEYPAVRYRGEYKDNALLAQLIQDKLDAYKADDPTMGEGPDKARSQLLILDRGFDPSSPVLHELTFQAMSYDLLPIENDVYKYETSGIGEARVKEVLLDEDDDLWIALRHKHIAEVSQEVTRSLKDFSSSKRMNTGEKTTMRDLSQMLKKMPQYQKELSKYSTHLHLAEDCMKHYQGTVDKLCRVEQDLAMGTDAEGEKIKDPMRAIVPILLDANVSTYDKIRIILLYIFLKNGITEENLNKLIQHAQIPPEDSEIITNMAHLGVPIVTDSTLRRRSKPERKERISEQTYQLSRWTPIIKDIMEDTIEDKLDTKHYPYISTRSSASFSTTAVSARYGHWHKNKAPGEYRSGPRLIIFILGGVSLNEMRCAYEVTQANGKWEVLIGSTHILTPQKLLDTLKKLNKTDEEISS

Target: T1, myc-DGKθ (UniProt P52824)
T1 sequence: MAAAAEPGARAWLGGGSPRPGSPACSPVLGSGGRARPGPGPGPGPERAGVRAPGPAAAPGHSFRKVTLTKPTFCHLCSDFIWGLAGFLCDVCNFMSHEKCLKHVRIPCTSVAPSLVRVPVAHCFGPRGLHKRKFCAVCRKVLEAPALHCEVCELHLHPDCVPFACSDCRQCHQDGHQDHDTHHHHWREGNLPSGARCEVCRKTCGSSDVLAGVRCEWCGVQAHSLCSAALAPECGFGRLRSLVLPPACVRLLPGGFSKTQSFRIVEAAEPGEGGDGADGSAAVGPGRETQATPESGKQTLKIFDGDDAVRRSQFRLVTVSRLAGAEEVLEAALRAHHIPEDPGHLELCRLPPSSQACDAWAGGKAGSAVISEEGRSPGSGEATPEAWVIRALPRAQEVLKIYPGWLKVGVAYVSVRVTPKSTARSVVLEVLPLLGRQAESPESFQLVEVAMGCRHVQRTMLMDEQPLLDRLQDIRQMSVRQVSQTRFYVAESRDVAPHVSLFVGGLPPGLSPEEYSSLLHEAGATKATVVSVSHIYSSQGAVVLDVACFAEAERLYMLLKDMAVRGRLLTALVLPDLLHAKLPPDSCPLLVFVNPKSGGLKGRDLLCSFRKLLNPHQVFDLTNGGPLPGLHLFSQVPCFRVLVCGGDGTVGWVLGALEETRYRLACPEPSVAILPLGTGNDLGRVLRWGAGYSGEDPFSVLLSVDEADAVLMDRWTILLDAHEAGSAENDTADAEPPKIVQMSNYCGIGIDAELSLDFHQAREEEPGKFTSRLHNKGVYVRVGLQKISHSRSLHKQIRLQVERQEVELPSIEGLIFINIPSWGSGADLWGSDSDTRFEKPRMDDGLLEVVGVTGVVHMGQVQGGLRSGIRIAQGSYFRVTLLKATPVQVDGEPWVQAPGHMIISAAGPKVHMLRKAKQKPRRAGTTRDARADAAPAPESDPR
Assay: co-IP; HEK293FT transfected with pRK5-myc-DGKθ alone or with each interactor's plasmid; lysis in 1% NP40, 5 mM NaF, 5 mM NaPPi, 1 mM EDTA, 1 mM EGTA in PBS; anti-myc antibody and protein A/G beads; Western blot for the interactor

binding: binds
Substance: Munc18-1b (tagged, overexpressed in HEK293FT) (from UniProt P61765)
